This passage reports binding results from paper PMC13107022.

Protein sequences, listed by entry. Tags and fused reporters are not part of them.
UniProt O00505: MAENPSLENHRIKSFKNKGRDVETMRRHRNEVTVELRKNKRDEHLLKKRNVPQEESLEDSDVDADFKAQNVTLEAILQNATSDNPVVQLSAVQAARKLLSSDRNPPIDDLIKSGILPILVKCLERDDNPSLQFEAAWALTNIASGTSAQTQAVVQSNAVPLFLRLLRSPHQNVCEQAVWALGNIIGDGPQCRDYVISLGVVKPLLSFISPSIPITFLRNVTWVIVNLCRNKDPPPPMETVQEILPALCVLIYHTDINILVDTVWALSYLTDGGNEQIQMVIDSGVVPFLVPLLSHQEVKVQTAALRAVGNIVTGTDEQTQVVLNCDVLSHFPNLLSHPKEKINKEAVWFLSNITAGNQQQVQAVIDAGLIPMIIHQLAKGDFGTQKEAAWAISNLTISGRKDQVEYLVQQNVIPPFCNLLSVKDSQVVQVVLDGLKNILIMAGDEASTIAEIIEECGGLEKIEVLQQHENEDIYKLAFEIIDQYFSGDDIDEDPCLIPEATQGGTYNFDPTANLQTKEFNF
UniProt Q9Y4B6: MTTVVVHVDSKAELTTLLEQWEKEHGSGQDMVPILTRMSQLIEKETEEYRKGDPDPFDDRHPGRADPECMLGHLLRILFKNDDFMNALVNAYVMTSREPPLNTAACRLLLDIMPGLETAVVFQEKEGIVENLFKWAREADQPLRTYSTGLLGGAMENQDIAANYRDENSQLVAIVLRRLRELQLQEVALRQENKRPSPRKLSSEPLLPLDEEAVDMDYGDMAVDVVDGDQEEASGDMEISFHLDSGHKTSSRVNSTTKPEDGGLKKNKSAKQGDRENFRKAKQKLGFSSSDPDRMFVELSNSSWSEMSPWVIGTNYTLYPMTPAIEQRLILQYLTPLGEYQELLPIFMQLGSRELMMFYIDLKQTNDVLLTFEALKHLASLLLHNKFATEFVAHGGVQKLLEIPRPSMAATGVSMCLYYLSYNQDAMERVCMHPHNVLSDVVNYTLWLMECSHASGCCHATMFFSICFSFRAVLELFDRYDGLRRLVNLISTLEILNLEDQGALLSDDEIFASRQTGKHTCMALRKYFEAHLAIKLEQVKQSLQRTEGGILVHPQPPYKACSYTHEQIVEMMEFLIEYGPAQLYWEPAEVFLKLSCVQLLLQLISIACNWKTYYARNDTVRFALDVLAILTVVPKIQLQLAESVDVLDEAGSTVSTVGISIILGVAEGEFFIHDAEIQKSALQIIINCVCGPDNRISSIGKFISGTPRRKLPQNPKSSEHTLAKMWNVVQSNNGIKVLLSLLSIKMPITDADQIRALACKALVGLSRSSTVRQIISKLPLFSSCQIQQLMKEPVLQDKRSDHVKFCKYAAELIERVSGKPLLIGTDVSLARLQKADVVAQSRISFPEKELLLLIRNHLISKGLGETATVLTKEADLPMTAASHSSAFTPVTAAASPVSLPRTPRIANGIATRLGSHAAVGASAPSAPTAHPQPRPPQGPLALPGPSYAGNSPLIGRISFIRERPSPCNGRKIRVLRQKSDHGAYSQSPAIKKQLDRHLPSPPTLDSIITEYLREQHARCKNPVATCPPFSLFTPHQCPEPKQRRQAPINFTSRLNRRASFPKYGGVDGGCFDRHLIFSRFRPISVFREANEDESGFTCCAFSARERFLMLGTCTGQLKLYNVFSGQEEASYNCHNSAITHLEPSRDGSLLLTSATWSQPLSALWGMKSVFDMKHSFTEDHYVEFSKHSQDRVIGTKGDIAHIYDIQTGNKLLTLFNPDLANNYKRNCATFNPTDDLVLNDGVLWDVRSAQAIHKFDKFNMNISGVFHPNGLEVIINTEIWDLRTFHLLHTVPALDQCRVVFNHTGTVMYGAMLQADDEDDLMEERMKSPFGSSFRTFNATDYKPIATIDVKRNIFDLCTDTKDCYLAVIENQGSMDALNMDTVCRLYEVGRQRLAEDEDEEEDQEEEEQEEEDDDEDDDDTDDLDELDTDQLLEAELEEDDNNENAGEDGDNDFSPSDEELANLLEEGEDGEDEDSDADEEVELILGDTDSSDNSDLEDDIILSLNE

Results are given in words; binding and its absence hold for the method and conditions named. In cells and extracts the contact can be indirect. Some binding calls cover weakened binding; strength is not graded here. Tags and fused reporters may be left off the sequences shown.

The target in test [1] is T1, MBP-RAG1 (full-length human RAG1 with N-terminal maltose-binding protein tag) (human) (UniProt P15918).
T1 sequence: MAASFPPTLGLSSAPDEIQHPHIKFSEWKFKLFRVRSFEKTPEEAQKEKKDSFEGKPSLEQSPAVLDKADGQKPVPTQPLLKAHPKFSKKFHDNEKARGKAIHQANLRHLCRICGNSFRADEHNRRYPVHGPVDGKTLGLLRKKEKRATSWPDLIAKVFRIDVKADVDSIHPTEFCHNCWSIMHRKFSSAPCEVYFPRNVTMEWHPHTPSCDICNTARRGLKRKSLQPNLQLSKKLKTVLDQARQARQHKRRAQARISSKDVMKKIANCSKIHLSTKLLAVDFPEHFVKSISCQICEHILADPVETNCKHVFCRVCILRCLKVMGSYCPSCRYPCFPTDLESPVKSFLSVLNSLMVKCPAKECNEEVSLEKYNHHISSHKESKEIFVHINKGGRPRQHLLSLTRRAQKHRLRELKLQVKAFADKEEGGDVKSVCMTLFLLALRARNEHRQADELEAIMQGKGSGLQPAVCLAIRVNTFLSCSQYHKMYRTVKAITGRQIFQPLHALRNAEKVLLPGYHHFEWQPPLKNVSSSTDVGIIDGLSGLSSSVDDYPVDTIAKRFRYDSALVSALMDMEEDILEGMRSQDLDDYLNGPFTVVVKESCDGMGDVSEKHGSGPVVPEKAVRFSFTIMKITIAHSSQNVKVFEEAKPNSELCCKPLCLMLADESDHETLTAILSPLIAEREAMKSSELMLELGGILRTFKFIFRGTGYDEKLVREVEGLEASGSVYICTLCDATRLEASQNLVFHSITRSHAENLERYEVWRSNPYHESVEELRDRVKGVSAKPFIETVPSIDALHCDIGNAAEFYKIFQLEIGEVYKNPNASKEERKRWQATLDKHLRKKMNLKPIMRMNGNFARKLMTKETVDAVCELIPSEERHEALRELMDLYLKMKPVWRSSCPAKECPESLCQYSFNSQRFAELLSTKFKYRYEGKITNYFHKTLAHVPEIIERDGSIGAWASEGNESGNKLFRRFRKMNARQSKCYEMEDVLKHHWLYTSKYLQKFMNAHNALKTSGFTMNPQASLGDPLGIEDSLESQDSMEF
Nature of the test: pull-down; MBP pull-down: HEK293T co-transfected with MBP-fused RAG1/2 and HA-tagged VprBP; same procedure as the GST pull-down but dextrin beads to enrich MBP-tagged proteins; western blot. (Immunoblotting shows a protein as a band on a membrane.)

Test [2] concerns the target T2, GST-NUP37 (Nucleoporin 37 with N-terminal GST tag) (human) (UniProt Q8NFH4).
T2 sequence: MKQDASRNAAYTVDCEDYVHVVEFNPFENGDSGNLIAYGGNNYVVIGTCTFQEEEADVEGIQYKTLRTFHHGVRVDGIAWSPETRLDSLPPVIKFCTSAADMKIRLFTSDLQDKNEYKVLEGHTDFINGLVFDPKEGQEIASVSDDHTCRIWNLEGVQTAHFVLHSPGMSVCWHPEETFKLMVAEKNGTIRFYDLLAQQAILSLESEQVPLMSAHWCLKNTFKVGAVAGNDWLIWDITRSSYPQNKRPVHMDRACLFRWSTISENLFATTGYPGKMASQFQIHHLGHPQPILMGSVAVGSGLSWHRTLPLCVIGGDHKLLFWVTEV
Briefly: pull-down; in vivo GST pull-down: HEK293T co-transfected with MBP-tagged RAG1/2 and GST-tagged target protein; lysis in 50 mM Tris-HCl pH 7.5, 150 mM NaCl, 1% NP-40; glutathione agarose beads, 4°C, 2 h; western blot.

Test [3] addresses GST-KPNA3 (Karyopherin Subunit Alpha 3 with N-terminal GST tag) (human) (UniProt O00505). The test is described as above.
Test [4] shares this target. Briefly: pull-down; in vivo GST pull-down for subunit selectivity: GST-KPNA3 or GST-NAA40 examined with MBP-RAG1 and with MBP-RAG2 (Supplementary Figure S6).
Test [5] concerns the target T3, GST-NUP133 (N-terminal GST tag) (human) (UniProt Q8WUM0).
T3 sequence: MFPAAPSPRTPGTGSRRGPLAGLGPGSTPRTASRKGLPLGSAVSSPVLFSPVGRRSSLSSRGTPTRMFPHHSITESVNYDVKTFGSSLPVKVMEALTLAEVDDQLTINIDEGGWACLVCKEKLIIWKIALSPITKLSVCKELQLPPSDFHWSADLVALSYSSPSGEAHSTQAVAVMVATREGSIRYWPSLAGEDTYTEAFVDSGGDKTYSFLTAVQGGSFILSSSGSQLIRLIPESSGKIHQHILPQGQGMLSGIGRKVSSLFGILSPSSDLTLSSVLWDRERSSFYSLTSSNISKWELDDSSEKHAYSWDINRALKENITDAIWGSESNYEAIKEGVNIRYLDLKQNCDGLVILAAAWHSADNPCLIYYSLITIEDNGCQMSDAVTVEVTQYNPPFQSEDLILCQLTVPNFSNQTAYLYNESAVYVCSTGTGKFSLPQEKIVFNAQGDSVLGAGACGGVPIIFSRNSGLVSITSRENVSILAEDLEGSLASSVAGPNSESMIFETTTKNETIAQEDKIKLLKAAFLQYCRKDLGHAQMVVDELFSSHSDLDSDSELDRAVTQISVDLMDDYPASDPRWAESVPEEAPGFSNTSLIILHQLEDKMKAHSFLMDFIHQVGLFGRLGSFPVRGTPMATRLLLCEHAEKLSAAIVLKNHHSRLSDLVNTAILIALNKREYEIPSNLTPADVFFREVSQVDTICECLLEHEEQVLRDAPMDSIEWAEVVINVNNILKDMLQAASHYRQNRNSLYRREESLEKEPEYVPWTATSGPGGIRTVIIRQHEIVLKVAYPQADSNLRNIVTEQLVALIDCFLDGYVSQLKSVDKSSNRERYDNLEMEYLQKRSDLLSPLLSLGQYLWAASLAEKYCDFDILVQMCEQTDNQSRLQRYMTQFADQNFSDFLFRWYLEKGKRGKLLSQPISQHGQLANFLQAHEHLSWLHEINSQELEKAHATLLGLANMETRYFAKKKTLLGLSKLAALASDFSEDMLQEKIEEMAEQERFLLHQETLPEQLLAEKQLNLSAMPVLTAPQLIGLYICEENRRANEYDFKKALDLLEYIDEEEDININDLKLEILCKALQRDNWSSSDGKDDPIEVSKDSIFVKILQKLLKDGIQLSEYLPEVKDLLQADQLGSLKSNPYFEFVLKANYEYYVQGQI
Nature of the test: pull-down; in vivo GST pull-down: HEK293T co-transfected with MBP-tagged RAG1/2 and GST-tagged target protein; lysis in 50 mM Tris-HCl pH 7.5, 150 mM NaCl, 1% NP-40; glutathione agarose beads, 4°C, 2 h; western blot.

For “HA-tagged VprBP (Vpr-binding protein) (from UniProt Q9Y4B6 1-1507)”, the binding result in test [1] is on record as “binds”.

B1: RAG2 core (residues 1–387) (domain or fragment, UniProt P55895 1-387)
chain: MSLQMVTVSNNIALIQPGFSLMNFDGQVFFFGQKGWPKRSCPTGVFHLDVKHNHVKLKPTIFSKDSCYLPPLRYPATCTFKGSLESEKHQYIIHGGKTPNNEVSDKIYVMSIVCKNNKKVTFRCTEKDLVGDVPEARYGHSINVVYSRGKSMGVLFGGRSYMPSTHRTTEKWNSVADCLPCVFLVDFEFGCATSYILPELQDGLSFHVSIAKNDTIYILGGHSLANNIRPANLYRIRVDLPLGSPAVNCTVLPGGISVSSAILTQTNNDEFVIVGGYQLENQKRMICNIISLEDNKIEIREMETPDWTPDIKHSKIWFGSNMGNGTVFLGIPGDNKQVVSEGFYFYMLKCAEDDTNEEQTTFTNSQTSTEDPGDSTPFEDSEEFCFS
B1: the binding result in test [2] is “binds”.

B2: MBP-RAG1 (full-length human RAG1 with N-terminal maltose-binding protein tag) (protein, UniProt P15918 1-1043)
chain: MAASFPPTLGLSSAPDEIQHPHIKFSEWKFKLFRVRSFEKTPEEAQKEKKDSFEGKPSLEQSPAVLDKADGQKPVPTQPLLKAHPKFSKKFHDNEKARGKAIHQANLRHLCRICGNSFRADEHNRRYPVHGPVDGKTLGLLRKKEKRATSWPDLIAKVFRIDVKADVDSIHPTEFCHNCWSIMHRKFSSAPCEVYFPRNVTMEWHPHTPSCDICNTARRGLKRKSLQPNLQLSKKLKTVLDQARQARQHKRRAQARISSKDVMKKIANCSKIHLSTKLLAVDFPEHFVKSISCQICEHILADPVETNCKHVFCRVCILRCLKVMGSYCPSCRYPCFPTDLESPVKSFLSVLNSLMVKCPAKECNEEVSLEKYNHHISSHKESKEIFVHINKGGRPRQHLLSLTRRAQKHRLRELKLQVKAFADKEEGGDVKSVCMTLFLLALRARNEHRQADELEAIMQGKGSGLQPAVCLAIRVNTFLSCSQYHKMYRTVKAITGRQIFQPLHALRNAEKVLLPGYHHFEWQPPLKNVSSSTDVGIIDGLSGLSSSVDDYPVDTIAKRFRYDSALVSALMDMEEDILEGMRSQDLDDYLNGPFTVVVKESCDGMGDVSEKHGSGPVVPEKAVRFSFTIMKITIAHSSQNVKVFEEAKPNSELCCKPLCLMLADESDHETLTAILSPLIAEREAMKSSELMLELGGILRTFKFIFRGTGYDEKLVREVEGLEASGSVYICTLCDATRLEASQNLVFHSITRSHAENLERYEVWRSNPYHESVEELRDRVKGVSAKPFIETVPSIDALHCDIGNAAEFYKIFQLEIGEVYKNPNASKEERKRWQATLDKHLRKKMNLKPIMRMNGNFARKLMTKETVDAVCELIPSEERHEALRELMDLYLKMKPVWRSSCPAKECPESLCQYSFNSQRFAELLSTKFKYRYEGKITNYFHKTLAHVPEIIERDGSIGAWASEGNESGNKLFRRFRKMNARQSKCYEMEDVLKHHWLYTSKYLQKFMNAHNALKTSGFTMNPQASLGDPLGIEDSLESQDSMEF
In the case of B2, the binding result in test [3] and in test [4] was “binds” in each case.

B3: MBP-RAG2 (full-length human RAG2 with N-terminal maltose-binding protein tag) (protein, UniProt P55895 1-527)
chain: MSLQMVTVSNNIALIQPGFSLMNFDGQVFFFGQKGWPKRSCPTGVFHLDVKHNHVKLKPTIFSKDSCYLPPLRYPATCTFKGSLESEKHQYIIHGGKTPNNEVSDKIYVMSIVCKNNKKVTFRCTEKDLVGDVPEARYGHSINVVYSRGKSMGVLFGGRSYMPSTHRTTEKWNSVADCLPCVFLVDFEFGCATSYILPELQDGLSFHVSIAKNDTIYILGGHSLANNIRPANLYRIRVDLPLGSPAVNCTVLPGGISVSSAILTQTNNDEFVIVGGYQLENQKRMICNIISLEDNKIEIREMETPDWTPDIKHSKIWFGSNMGNGTVFLGIPGDNKQVVSEGFYFYMLKCAEDDTNEEQTTFTNSQTSTEDPGDSTPFEDSEEFCFSAEANSFDGDDEFDTYNEDDEEDESETGYWITCCPTCDVDINTWVPFYSTELNKPAMIYCSHGDGHWVHAQCMDLAERTLIHLSAGSNKYYCNEHVEIARALHTPQRVLPLKKPPMKSLRKKGSGKILTPAKKSFLRRLFD
B3: the binding result in test [5] was “binds weakly”; in test [2], “binds”.
